Test [1] addresses ATP6V0D1 (human (endogenous in HEK-293T and MCF-7)) (UniProt P61421). Nature of the test: co-IP; MCF-7 cells infected with LV-sh-Con or LV-sh-ATP6AP1; ATP6V0D1-ATP6V1B2 interaction.
The target is the same in test [2]. Nature of the test: co-IP; HEK-293T cells transfected with Flag-ATP6AP1 plasmids; ATP6V0D1-ATP6V1B2 interaction.
Another test addresses Flag-ATP6AP1 (human) (UniProt Q15904). As to the kind of experiment: co-IP; HEK-293T cells transfected with HA-Rab7 and Flag-ATP6AP1 or Flag-ATP6AP2 plasmids for 48 h.
A further test addresses Flag-ATP6AP2 (UniProt O75787). The description is as above.

Chains of the proteins cited; added tags and fusions are not shown. Residues count along the entry.
UniProt P61421: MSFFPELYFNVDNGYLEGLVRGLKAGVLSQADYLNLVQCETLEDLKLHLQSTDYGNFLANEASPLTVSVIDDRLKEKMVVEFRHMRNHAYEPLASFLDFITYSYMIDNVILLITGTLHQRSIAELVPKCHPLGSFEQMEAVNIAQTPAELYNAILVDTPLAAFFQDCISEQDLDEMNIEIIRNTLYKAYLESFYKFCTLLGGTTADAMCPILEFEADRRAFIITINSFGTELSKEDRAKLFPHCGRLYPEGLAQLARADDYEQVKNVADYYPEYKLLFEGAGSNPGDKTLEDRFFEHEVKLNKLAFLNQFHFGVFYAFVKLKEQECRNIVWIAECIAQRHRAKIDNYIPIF
UniProt Q15904, residues 42-470: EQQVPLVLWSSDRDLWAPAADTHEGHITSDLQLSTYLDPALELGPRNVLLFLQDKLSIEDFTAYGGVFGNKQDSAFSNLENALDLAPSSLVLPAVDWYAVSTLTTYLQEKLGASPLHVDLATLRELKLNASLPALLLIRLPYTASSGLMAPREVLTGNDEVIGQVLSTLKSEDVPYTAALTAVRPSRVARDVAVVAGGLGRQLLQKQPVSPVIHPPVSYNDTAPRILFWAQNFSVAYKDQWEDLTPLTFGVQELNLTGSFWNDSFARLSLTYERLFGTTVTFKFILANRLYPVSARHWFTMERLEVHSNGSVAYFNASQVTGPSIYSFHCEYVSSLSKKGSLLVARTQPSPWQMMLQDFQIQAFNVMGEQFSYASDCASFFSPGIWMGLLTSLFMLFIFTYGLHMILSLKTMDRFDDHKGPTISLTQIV
UniProt O75787, residues 17-350: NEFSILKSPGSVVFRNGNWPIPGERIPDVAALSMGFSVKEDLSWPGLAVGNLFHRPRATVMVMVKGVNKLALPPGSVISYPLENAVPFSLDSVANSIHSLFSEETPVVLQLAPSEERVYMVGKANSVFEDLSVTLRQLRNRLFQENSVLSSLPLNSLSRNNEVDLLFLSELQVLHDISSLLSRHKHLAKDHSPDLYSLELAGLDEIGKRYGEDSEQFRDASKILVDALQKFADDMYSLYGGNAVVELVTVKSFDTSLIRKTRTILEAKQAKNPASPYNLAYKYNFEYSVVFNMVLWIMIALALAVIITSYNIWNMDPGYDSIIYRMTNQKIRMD
UniProt P21281: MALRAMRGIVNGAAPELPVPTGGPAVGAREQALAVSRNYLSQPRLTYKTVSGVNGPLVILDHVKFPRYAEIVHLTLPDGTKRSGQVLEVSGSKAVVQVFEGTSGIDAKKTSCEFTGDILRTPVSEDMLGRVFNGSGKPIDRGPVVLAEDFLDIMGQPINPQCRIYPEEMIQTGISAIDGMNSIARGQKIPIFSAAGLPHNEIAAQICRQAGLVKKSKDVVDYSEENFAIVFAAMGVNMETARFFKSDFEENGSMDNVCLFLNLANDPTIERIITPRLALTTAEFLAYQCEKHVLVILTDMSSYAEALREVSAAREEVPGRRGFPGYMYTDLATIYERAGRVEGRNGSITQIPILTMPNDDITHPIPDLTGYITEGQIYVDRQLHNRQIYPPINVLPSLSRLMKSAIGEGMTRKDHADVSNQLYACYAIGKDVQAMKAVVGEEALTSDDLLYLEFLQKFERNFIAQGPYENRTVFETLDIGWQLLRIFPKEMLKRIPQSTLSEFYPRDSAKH
UniProt P51149: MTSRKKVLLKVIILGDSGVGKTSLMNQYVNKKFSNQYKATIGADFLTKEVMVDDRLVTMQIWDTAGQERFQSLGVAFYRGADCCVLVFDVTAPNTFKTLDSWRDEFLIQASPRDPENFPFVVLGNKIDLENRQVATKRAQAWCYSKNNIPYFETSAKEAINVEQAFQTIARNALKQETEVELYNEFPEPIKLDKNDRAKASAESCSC

Results are given in words; binding and its absence hold for the method and conditions named. In cells and extracts the contact can be indirect. Some entries that bind do so weakly or less than the wild type.

For the substance ATP6V1B2 (from UniProt P21281 1-511), the binding entry in test [1] and in test [2] was “binds” throughout.
As for HA-Rab7 (from UniProt P51149 1-207), the binding entry with Flag-ATP6AP1 (human) is “binds”; in the test with Flag-ATP6AP2 it was “no binding”.

The record behind these values is article PMC11937278.
